Laboratory results from patent US6989397B1, “Iron chelators and uses thereof” (University of Queensland, priority 1999, dated 2006).
Some entries share one result that the patent states for a list of compounds. At least one compound was matched to its structure with a doubt left. Some ranges recur; such a range may be that of the whole group of compounds.

Legend:
Assay type in all cases: cell-based, human
[1] = tested on: SK-N-MC neuroepithelioma cells; assay: 59Fe release from prelabelled cells (iron efflux); conditions: 3 hr labelling, 3 hr reincubation, ligands 50 μM, DFO 100 μM, FIG. 2A screening experiment
Protocol: The effect of chelators on ^59Fe uptake from ^59Fe-Tf and ^59Fe release from prelabelled cells was studied using standard procedures reported previously (Richardson et al., 1994, J. Lab Clin. Med. 124 660–71). The amount of ^59Fe internalized by the cells was measured by incubation with the general protease pronase (1 mg/ml) for 30 min at 4° C. to remove membrane-bound ^59Fe and Tf (Richardson et al., 1990; Baker et al., 1998, Biochim. Biophys. Acta 1380 21–30).
The efflux of ^59Fe from SK-N-MC cells was examined after a 3 hr labelling period with ^59Fe-Tf (0.75 μM) followed by a 3 hr reincubation in the presence and absence of DFO (100 μM) or the remainder of the ligands at 50 μM (FIG. 2A).
Table 1. The effect of DFO, 311, PCTH, PCBH, or PCBHH on ^59Fe release from BE-2 neuroblastoma cells, SK-N-MC neuroepithelioma cells, and SK-Mel-28 melanoma cells. Cells were labeled for 3 h at 37° C. with ^59Fe-transferrin (0.75 μM), washed, and then reincubated with the chelators for 3 h at 37° C. […] Results are Mean±SD of three determinations in a typical experiment.

[2] = tested on: SK-N-MC neuroepithelioma cells; assay: internalized 59Fe uptake from 59Fe-transferrin; conditions: 3 hrs at 37° C., chelators 50 μM, DFO 100 μM, FIG. 2B screening experiment
Protocol: The effect of chelators on ^59Fe uptake from ^59Fe-Tf and ^59Fe release from prelabelled cells was studied using standard procedures reported previously (Richardson et al., 1994, J. Lab Clin. Med. 124 660-71). The amount of ^59Fe internalized by the cells was measured by incubation with the general protease pronase (1 mg/ml) for 30 min at 4° C. to remove membrane-bound ^59Fe and Tf (Richardson et al., 1990; Baker et al., 1998, Biochim. Biophys. Acta 1380 21-30). […] To determine the ability of the chelators to inhibit ^59Fe uptake from ^59Fe-Tf (0.75 μM). […] Table 2. The effect of DFO, 311, […], or PCBHH on internalized ^59Fe uptake from ^59Fe-transferrin by BE-2 neuroblastoma cells, SK-N-MC neuroepithelioma cells, and SK-Mel-28 melanoma cells. Cells were incubated with the chelators and ^59Fe-transferrin (0.75 μM) for 3 h at 37° C., washed, and incubated for 30 min at 4° C. with pronase (1 mg/ml) to separate the internalized from the membrane-bound ^59Fe. All chelators were screened at a concentration of 50 μM except for DFO which was examined at 100 μM. Results are mean±SD (three determinations) from a typical experiment.

[3] = tested on: SK-N-MC neuroepithelioma cells; assay: 3H-thymidine, 3H-leucine or 3H-uridine incorporation; conditions: for 3H-leucine and 3H-uridine incorporation, % of the control (range over both labels): 20 hr, chelators 50 μM, summary of Table 3
Protocol: Labelling of cells with ^3H-thymidine (20 Ci/mmol: Dupont NEN, MA, U.S.A.), ^3H-uridine (42.7 Ci/mmol/Dupont NEN, MA, U.S.A.) and ^3H-leucine (52 Ci/mmol: Dupont NEN) was estimated after precipitation with trichloroacetic acid (TCA). After a 20 hr incubation with the chelators, ^3H-leucine, ^3H-uridine or ^3H-thymidine (1 μCi/ml) were then added for 2 hrs at 37° C. Subsequently, petri dishes containing cell cultures were placed on ice and washed four times with ice-cold Hanks' balanced salt solution (BSS) and the cells detached from the plate using 1 mM EDTA in Ca/Mg-free saline. The cells were then pelleted by centrifugation, the supernatant removed and the pellet frozen at −70° C. After thawing the cells on ice, 1 ml of ice-cold 20% TCA was added and the solution then vortexed and kept on ice for 1 hr with periodic mixing. This solution was then centrifuged at 15,000 rpm for 15 mins at 4° C. and the supernatant removed. The pellet was then washed twice with 1 ml of ice-cold 10% TCA. The pellet was dissolved in 0.5 ml of 1 M NaOH and transferred to scintillation tubes with 3 ml of scintillant. Radioactivity was measured on a β-scintillation counter (LKB Wallace, Finland).
Table 3. The effect of the chelators on ^3H-thymidine, ^3H-leucine, or ^3H-uridine incorporation into SK-N-MC neuroepithelioma cells. Cells were incubated for 20 hr at 37° C. with either DFO (100 μM) or the other chelators (50 μM). Following this, either ^3H-thymidine, ^3H-leucine, or ^3H-uridine (1 μCi/mL) were added and the cells incubated for an additional 2 h at 37° C. (see Methods for details). Results are Mean±SD (4–5 determinations) from a typical experiment of 2–4 experiments performed.

| Structure (SMILES) | release of cellular 59Fe (FIG. 2A) [1] | 59Fe uptake from 59Fe-Tf, % of the control value (FIG. 2B) [2] | 3H-Thymidine incorporation, % Control ([3]; 20 hr with chelators 50 μM, DFO 100 μM, then label 2 h, Mean±SD) | 3H-leucine and 3H-uridine incorporation, % of the control (range over both labels) [3] |
| --- | --- | --- | --- | --- |
| O=C(NN=Cc1c(O)ccc2ccccc12)c1ccncc1 [Chelator 311, 2-hydroxy-1-naphthylaldehyde isonicotinoyl hydrazone, reference compound] | 40–42% | 13–30 % of the control | – | – |
| O=C(NN=Cc1ccco1)c1ccncc1 [FIH, 2furoylcarboxaldehyde isonicotinoyl hydrazone] | – | – | 11–17 % Control | 40–80 % of the control |
| O=C(NN=Cc1ccccn1)c1ccccc1 [PCBH, 2-pyridylcarboxaldehyde benzoyl hydrazone] | 40–42% | 13–30 % of the control | – | 16–47 % of the control |
| O=C(NN=Cc1ccccn1)c1cccs1 [PCTH, 2-pyridylcarboxaldehyde 2-thiophenecarboxyl hydrazone] | 40–42% | 13–30 % of the control | – | 16–47 % of the control |
| Cc1ncc(CO)c(C=NNC(=O)c2ccncc2)c1O [PIH, pyridoxal isonicotinoyl hydrazone, reference compound] | 40–42% | 13–30 % of the control | – | – |
